# Results from PubChem BioAssay AID1671190 (National Center for Advancing Translational Sciences (NCATS), 2021).
# Chains of the proteins cited; added tags and fusions are not shown. Lines headed by an entry give the natural chain unless they say otherwise; changes in a name come on top.
# UniProt P18054: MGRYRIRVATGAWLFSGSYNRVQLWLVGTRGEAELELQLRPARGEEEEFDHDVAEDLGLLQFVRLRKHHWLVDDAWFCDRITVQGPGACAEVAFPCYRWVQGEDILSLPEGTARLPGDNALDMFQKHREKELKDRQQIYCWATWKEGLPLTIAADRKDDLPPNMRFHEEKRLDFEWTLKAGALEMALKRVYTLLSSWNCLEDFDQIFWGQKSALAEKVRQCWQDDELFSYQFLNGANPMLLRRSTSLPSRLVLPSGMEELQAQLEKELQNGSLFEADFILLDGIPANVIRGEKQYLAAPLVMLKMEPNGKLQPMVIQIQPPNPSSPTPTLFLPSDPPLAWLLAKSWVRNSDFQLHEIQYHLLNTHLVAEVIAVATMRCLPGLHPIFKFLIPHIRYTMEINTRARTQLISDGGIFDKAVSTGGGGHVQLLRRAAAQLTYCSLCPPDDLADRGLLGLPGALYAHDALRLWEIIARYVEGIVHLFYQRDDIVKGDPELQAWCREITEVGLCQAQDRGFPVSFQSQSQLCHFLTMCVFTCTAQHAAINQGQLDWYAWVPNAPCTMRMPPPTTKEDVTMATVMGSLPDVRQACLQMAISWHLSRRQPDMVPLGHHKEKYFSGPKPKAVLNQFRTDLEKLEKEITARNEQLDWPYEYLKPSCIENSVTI
# Among all 580,000 compounds or so, about 6,100 (1.1%) were called active. The shares of active, inactive and inconclusive entries below differ from those in the screen. Calls come from the whole dose curve; as a rule, active = well fitted inhibition curve with a large enough effect; inconclusive = small, poorly fitted or top-dose-only effect, or another doubt; inactive = no such curve, though single readings can be large or run the other way. Potencies beside an inconclusive call are fits to weak or partial responses and may not hold up.
# Biological target: Polyunsaturated fatty acid lipoxygenase ALOX12 (Homo sapiens) (UniProt P18054)
# Test: Primary qHTS assay for inhibitors of human arachidonate 12S-lipoxygenase (ALOX12): Round 2
# Details: purified 12hLO, xylenol orange hydroperoxide absorbance; activity change, negative = inhibition: at 108 µM (top of the series) unless noted
# Outline: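 Purified human 12hLO (150 nM final) in 25 mM Hepes, 0.01% Triton X-100, pH 7.0 was preincubated 15 min at room temperature with compound. Then 40 uM arachidonic acid was added, 30 min. Hydroperoxide was read by Fe-XO absorbance ratio 573/405 nm.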
# % is set by controls: 0 for no effect and ±100 for the full control effect; potency is the fitted concentration of half-maximal effect.
SMILES,"activity change, negative = inhibition",Potency
COC(C[C@H](O)C[C@H](O)[C@@H](C)OCc1ccccc1)OC,inactive: -24.7%,
COc1ccc(OC)c(C2CC(=O)Nc3c2c(C)nn3-c2ccc3nnc(C)n3n2)c1 (stereo unspecified),inactive: 7.15%,
CCCCNC(=O)c1cccc(NC(=O)c2nsc3ccccc23)c1,inactive: 0.104%,
Cc1ccc(C(=O)/C=C/Nc2ccc(N(C)C)cc2)cc1C,,"inconclusive: 50.1 µM [inhibitor, partial curve, poor fit]"
O=C1CCN(C(=O)Cc2ccccc2)CCCC(CO)CCN1 (stereo unspecified),,"inconclusive: 3.98 µM [inhibitor, full curve, poor fit]"
CCN1CCN(c2oc(COc3cccc(Cl)c3)nc2C#N)CC1,inactive: -58%,
Cn1c(N)c(C(=O)c2ccc(F)cc2F)c(=O)n(C)c1=O,,"inconclusive: 70.8 µM [inhibitor, partial curve, poor fit]"
CCOc1ccc(CCNC(=O)c2nnc(Cc3ccc(F)cc3)o2)cc1OCC,,"inconclusive: 126 µM [inhibitor, single point]"
O=c1[nH]nnc2c1ncn2C1OC(CO)C(O)C1O (stereo unspecified),,"inconclusive: 50.1 µM [inhibitor, partial curve, poor fit]"
O=C(Sc1cccc2cccnc12)c1ccccc1Br,,"inconclusive: 50.1 µM [inhibitor, partial curve, poor fit]"
CCCOc1ccc(C(=O)NNC(=S)NC(=O)c2cc(-c3ccc(Cl)cc3)nc3ccccc23)cc1,,"inconclusive: 6.31 µM [inhibitor, partial curve, poor fit]"
C[C@@]1(O)CCN(Cc2cnc(NCC(=O)O)nc2)C[C@@H]1O,,"inconclusive: 28.2 µM [inhibitor, single point]"
CC(=O)Nc1ccc(NC(=O)c2nc(S(=O)(=O)Cc3ccc(F)cc3)ncc2Cl)cc1,inactive: -12.8%,
C=C/C(C)=C/C/C=C(\C)CCC=C(C)C,,"inconclusive: 200 µM [inhibitor, single point]"
OC(COCc1ccccc1)CN1CCN(c2ccccc2F)CC1 (stereo unspecified),,"inconclusive: 89.1 µM [inhibitor, partial curve, poor fit]"
Cc1ccc(C2NC(=S)NC3=C2CCc2ccccc23)cc1 (stereo unspecified),,"inconclusive: 15.8 µM [inhibitor, partial curve, poor fit]"
O=C(Nn1cnnc1)c1ccc([N+](=O)[O-])cc1Cl,,"inconclusive: 50.1 µM [inhibitor, partial curve, poor fit]"
O=C(O)CCn1[nH]c(=O)ccc1=O,,"inconclusive: 39.8 µM [inhibitor, partial curve, poor fit]"
CC(=O)c1c(C)[nH]c(C(=O)Nc2cccc(S(=O)(=O)N3CCCCC3)c2)c1C,,"inconclusive: 89.1 µM [inhibitor, single point]"
COc1ccc(Sc2nc(-c3ccccn3)ncc2OC)cc1,inactive: -13%,
COc1ccc(C2C(C(C)=O)=C(C)N=c3s/c(=C\c4ccc5c(c4)OCO5)c(=O)n32)c(OC)c1 (stereo unspecified),,"inconclusive: 35.5 µM [inhibitor, single point]"
Cc1cc(C)c2nc(N3CCC(C(=O)NCc4ccc(OC(C)C)cc4)CC3)sc2c1,,"inconclusive: 1.78 µM [inhibitor, single point]"
CNC(=O)CCn1ncc2cc(OCc3ccccc3-c3ccccc3Cl)ccc21,,"inconclusive: 56.2 µM [inhibitor, partial curve]"
CC(/C=N/NC(=O)c1cc(-c2ccc(Cl)cc2)nc2ccccc12)=C\c1ccco1,,"inconclusive: 5.01 µM [inhibitor, full curve, poor fit]"

SMILES,"activity change, negative = inhibition",Potency
Cc1c(-c2ccccc2)oc2c(C(=O)OCC(=O)Nc3ccc(F)cc3F)cccc2c1=O,,"inconclusive: 50.1 µM [inhibitor, partial curve, poor fit]"
O=C(N(c1ccccc1)c1ccccc1)N(c1ccccc1)c1ccccc1,inactive: 22.3%,
COC(=O)[C@H](Cc1ccc(O)cc1)NC(=O)Cn1cnc(C(=O)Nc2ccc(C)c(C)c2)n1,inactive: 9.79%,
O=C(O)c1ccccc1C(=O)Nc1ccc(-n2ccc(C(F)(F)F)n2)cc1,inactive: 13%,
CC1CCN(S(=O)(=O)c2ccc3[nH]cc(C(=O)NCCN4CCOCC4)c(=O)c3c2)CC1,inactive: 430%,
CCCCn1c(O)c(C2=Nc3ccccc3SC(c3cccc(O)c3)C2)c(=O)[nH]c1=O (stereo unspecified),inconclusive: -33.1% [inhibitor],
CCOC(=O)c1ccccc1NC(=O)CSc1nc2c(sc(=S)n2CC)c(=O)[nH]1,,"inconclusive: 6.31 µM [inhibitor, full curve, poor fit]"
Cc1ccc(NNC(N)=S)cc1Cl,,active: 28.2 µM
Oc1c(Br)cc(/C=N/Nc2ccc(Cl)nn2)cc1Br,,"inconclusive: 50.1 µM [inhibitor, partial curve, poor fit]"
c1cc(-c2noc(CCC3CCCC3)n2)ccn1,,"inconclusive: 141 µM [inhibitor, single point]"
CCCCCCOc1ccc(C(=O)Oc2ccc(-c3ccc(CCC)cn3)cc2)cc1,inactive: -11.7%,
N#CCC(=O)NN,inactive: -7.02% [at 22.9 µM],
Cc1cccc(CSCC(=O)O)c1,,"inconclusive: 39.8 µM [inhibitor, partial curve, poor fit]"
COc1cc2c(cc1OC)C(c1cccc(Cl)c1)CC(=O)N2 (stereo unspecified),,"inconclusive: 25.1 µM [inhibitor, partial curve, poor fit]"
O=C1NC(O)CCN1C1CC(O)C(CO)O1 (stereo unspecified),,"inconclusive: 44.7 µM [inhibitor, partial curve, poor fit]"
CN(C)c1ccc(Nc2ncnc3ccc(Br)cc23)cc1,inactive: -10.8%,
CSc1nnc(-c2ccco2)c(-c2ccco2)n1,,active: 22.4 µM
CC(C)C[C@@H]1N[C@H](C(=O)NCC2CC2)Cc2c[nH]c3cccc1c23,inactive: 58% [at 176 µM],
COC(=O)CN1C(=O)C2(C(C#N)=C(N)Oc3cc(C)oc(=O)c32)c2ccccc21 (stereo unspecified),,"inconclusive: 50.1 µM [inhibitor, partial curve, poor fit]"
O=S(=O)(Nc1nc(-c2ccccc2)cs1)c1cccc(C(F)(F)F)c1,,"inconclusive: 112 µM [inhibitor, partial curve, poor fit]"
Cc1c(CNCCc2c[nH]c3ccccc23)c(C(=O)O)c(C)n1Cc1ccc(Cl)cc1,,"inconclusive: 50.1 µM [inhibitor, partial curve, poor fit]"
CCOc1ccc(NCc2cccn2-c2nnc(N3CCC(C(=O)NCc4ccccc4Cl)CC3)s2)cc1,inactive: -5.21%,
COc1ccc2cc(C(=O)N3CCN(c4ccc(F)cc4)CC3)[nH]c2c1,,"inconclusive: 15.8 µM [inhibitor, full curve]"
COc1ccc(-n2c(C)c([N+](=O)[O-])c3ccc(O)c(CN4CCCCC4)c32)cc1,inactive: -20.8%,

SMILES,"activity change, negative = inhibition",Potency
COC(=O)/C(C#N)=N\O,inactive: 0%,
CCOc1ccc(C2CCCN2C(=O)c2csc(-c3ccsc3)n2)cc1 (stereo unspecified),inactive: -12.9%,
N#Cc1ccccc1S(=O)(=O)NCC(=O)O,,"inconclusive: 0.562 µM [inhibitor, full curve]"
COc1ccc(C(=O)Nc2nncs2)cc1S(=O)(=O)N1CC(c2ccccc2)CC1=O (stereo unspecified),inactive: 487%,
O=C(O)CC1Cc2ccccc2C1C(=O)O (stereo unspecified),,"inconclusive: 44.7 µM [inhibitor, partial curve, poor fit]"
CC(NC(=O)Cn1nc(-c2ccc(F)cc2)oc1=O)c1ccc(F)cc1 (stereo unspecified),inactive: 0.639%,
CC(C)COc1cccc(C(=O)Nc2ccc(S(=O)(=O)N3CCOCC3)cc2)c1,inactive: 2.56%,
O=C(NCc1ccccc1)O[C@H]1COCCN(c2nc3ccccc3o2)C1,inactive: 15.3% [at 176 µM],
O=C1NCCCCCCN(Cc2cccc(F)c2)[C@H]2CCC[C@@H]12,inactive: 119%,
CC(C)C(=O)N1CCC2(CC1)N(C)C(=O)CS2(=O)=O,inactive: 32%,
COc1cc(OC)c(Nc2nc3ccccc3nc2NS(=O)(=O)c2ccc(C)cc2)cc1Cl,inactive: -10.2%,
Cc1ccc2c(c1)N(C(=O)CSc1nncn1C)C(C)(C)c1ssc(=S)c1-2,,active: 35.5 µM
CCN(CC)S(=O)(=O)c1cccc(C(=O)Nc2ccccc2C(=O)Nc2ccc(Cl)cc2)c1,inactive: 5.58%,
COC(=O)[C@@]1(C)[C@H]2C(=O)N(Cc3ccccc3)C(=O)[C@H]2[C@H]2CN=C(SCC3CC3)N21,,"inconclusive: 44.7 µM [inhibitor, partial curve, poor fit]"
O=C(O)c1ccc(NC(=S)NC(=O)c2ccc(-c3ccc(Br)cc3)o2)cc1,,active: 17.8 µM
CCCCCn1nc(C(=O)OCC(=O)NCC(F)(F)F)c2ccccc2c1=O,,"inconclusive: 44.7 µM [inhibitor, partial curve, poor fit]"
O=C(c1ccc(F)cc1)N1CCN(Cc2ccc(F)cc2)CC1,,"inconclusive: 0.631 µM [inhibitor, full curve, poor fit]"
O=C(Cn1nc(-c2ccccc2)c2ccccc2c1=O)Nc1ccccn1,,"inconclusive: 3.16 µM [inhibitor, full curve, poor fit]"
O=C1NC(=S)SC1=Cc1cc(Br)ccc1O,,active: 25.1 µM
CC(=O)c1ccc(NC(=O)c2cc(C)nn2-c2ccccc2)cc1,,"inconclusive: 0.282 µM [inhibitor, single point]"
O=C(NC1CCN(S(=O)(=O)c2cccc(F)c2)CC1)C1CCCCC1,,"inconclusive: 50.1 µM [inhibitor, partial curve, poor fit]"
COc1ccc(C(C)=O)cc1CC1(C)C(=O)Nc2ccc(OC(F)(F)F)cc21 (stereo unspecified),,"inconclusive: 141 µM [inhibitor, single point]"
O=C(CCNc1ccc(F)cc1)c1cc2ccccc2o1,,"inconclusive: 1 µM [inhibitor, full curve, poor fit]"
